Measurements as given in the supplement of paper PMC7238544.
Structures can show the parent of a compound that is named as a salt. ± gives the standard deviation of the averaged measurements. Some of the results follow. The data scatter; read single values as rough.

Columns and labels:
hAMSC donor 1 [1] = assay: Hoechst total cell count ratio vs vehicle control; higher = more cells (less toxicity)
hAMSC donor 2 [2] = assay: as above
hAMSC donor 1 [3] = assay: transgenic luciferase activity (RLU/mg protein) fold change vs vehicle control (ratio); higher = more transgene expression
hAMSC donor 2 [4] = assay: as above
hAMSC donor 1 [5] = assay: transfection efficiency (EGFP+ cells / Hoechst count) fold change vs vehicle control (ratio); hAMSC are human adipose-derived mesenchymal stem cells given an EGFP-luciferase plasmid by lipofection; higher = enhanced transfection
hAMSC donor 2 [6] = assay: as above
[7] = priming compound concentration 0.2 µM
[8] = priming compound concentration 1.7 µM
[9] = priming compound concentration 13 µM

| SMILES | Hoechst total cell count ratio (hAMSC donor 1 [1]; [7]) | Hoechst total cell count ratio (hAMSC donor 1 [1]; [8]) | Hoechst total cell count ratio (hAMSC donor 1 [1]; [9]) | Hoechst total cell count ratio (hAMSC donor 2 [2]; [7]) | Hoechst total cell count ratio (hAMSC donor 2 [2]; [8]) | Hoechst total cell count ratio (hAMSC donor 2 [2]; [9]) | transgenic luciferase activity (hAMSC donor 1 [3]; [8]) | transgenic luciferase activity (hAMSC donor 1 [3]; [9]) | transgenic luciferase activity (hAMSC donor 2 [4]; [8]) | transgenic luciferase activity (hAMSC donor 2 [4]; [9]) | transfection efficiency (hAMSC donor 1 [5]; [7]) | transfection efficiency (hAMSC donor 1 [5]; [8]) | transfection efficiency (hAMSC donor 1 [5]; [9]) | transfection efficiency (hAMSC donor 2 [6]; [7]) | transfection efficiency (hAMSC donor 2 [6]; [8]) | transfection efficiency (hAMSC donor 2 [6]; [9]) | transgenic luciferase activity (hAMSC donor 1 [3]; [7]) | transgenic luciferase activity (hAMSC donor 2 [4]; [7]) |
| --- | --- | --- | --- | --- | --- | --- | --- | --- | --- | --- | --- | --- | --- | --- | --- | --- | --- | --- |
| CC[C@H](C)C(=O)O[C@H]1CCC=C2C=C[C@H](C)[C@H](CC[C@@H]3C[C@@H](O)CC(=O)O3)[C@H]21 [Mevastatin] | 1.09 ± 0.32 | 1.06 ± 0.13 | 0.829 ± 0.15 | 0.571 ± 0.17 | 1.17 ± 0.12 | 0.992 | 0.73 ± 0.55 | 0.832 ± 0.48 | 0.512 ± 0.15 | 0.388 ± 0.091 | 1.29 ± 0.59 | 1.36 ± 0.65 | 1.63 ± 0.89 | 1.32 ± 0.34 | 1.07 ± 0.17 | 1.22 ± 0.41 | – | – |
| CNCC(O)c1ccc(O)c(O)c1 (stereo unspecified) [Racepinephrine] | 1.3 ± 0.089 | 1.38 ± 0.3 | 1.5 ± 0.27 | 1.14 ± 0.051 | 0.809 ± 0.059 | 1.34 ± 0.16 | – | 0.616 ± 0.46 | 0.501 ± 0.062 | – | 1.06 ± 0.34 | 1.21 ± 0.19 | 0.98 ± 0.14 | 1.01 ± 0.045 | 1.1 ± 0.05 | 0.68 ± 0.23 | 1.2 ± 0.4 | 0.709 ± 0.076 |
| CNCCC=C1c2ccccc2CCc2ccccc21 [Nortriptyline hydrochloride] | 1.28 ± 0.2 | 1.14 ± 0.086 | 1.25 ± 0.12 | 1.21 ± 0.31 | 1.32 ± 0.12 | 2.38 ± 0.21 | 0.694 ± 0.38 | – | 0.513 ± 0.12 | 0.139 ± 0.068 | 1.04 ± 0.41 | 1.79 ± 0.42 | 0.559 ± 0.092 | 1.41 ± 0.07 | 0.938 ± 0.2 | 0.916 ± 0.082 | – | 0.485 ± 0.032 |
| COC(=O)Nc1nc2cc(C(=O)c3ccc(F)cc3)ccc2[nH]1 [Flubendazole] | 1.1 ± 0.16 | 1.16 ± 0.16 | 1.02 ± 0.38 | 1.02 ± 0.093 | 0.762 ± 0.017 | 0.508 ± 0.084 | 0.543 ± 0.32 | – | 0.516 ± 0.056 | 0.185 ± 0.043 | 1.05 ± 0.15 | 1.14 ± 0.15 | 0.829 ± 0.15 | 1.34 ± 0.17 | 1.42 ± 0.12 | 0.967 ± 0.14 | 1.36 ± 0.73 | – |
| CC(C)NCC(O)COc1ccc(CC(N)=O)cc1 (stereo unspecified) [Atenolol] | 1.06 ± 0.23 | 1.34 ± 0.2 | 1.48 ± 0.12 | 1.22 ± 0.042 | 0.756 ± 0.018 | 0.855 ± 0.18 | 1.75 ± 0.23 | – | 0.789 ± 0.069 | 0.509 ± 0.025 | 1.05 ± 0.13 | 1.18 ± 0.088 | 1.07 ± 0.2 | 0.905 ± 0.12 | 1.67 ± 0.071 | 1.4 ± 0.15 | 0.474 ± 0.16 | – |
| CC(C)Cc1ccc(C(C)C(=O)O)cc1 (stereo unspecified) [Ibuprofen] | 0.91 ± 0.09 | 0.988 ± 0.08 | 0.826 ± 0.09 | 1.18 ± 0.49 | 1.3 ± 0.21 | 1.19 ± 0.37 | 1.79 ± 1 | – | 2.72 ± 1.8 | 0.488 ± 0.28 | 0.926 ± 0.19 | 0.954 ± 0.14 | 0.895 ± 0.23 | 1.46 ± 0.31 | 0.938 ± 0.071 | 1.19 ± 0.24 | – | 0.714 ± 0.098 |
| CC(=O)OCC[N+](C)(C)C [Acetylcholine chloride] | 1.273 ± 0.011 | 1.09 ± 0.16 | 1.05 ± 0.065 | 0.991 ± 0.0076 | 1.32 ± 0.32 | 1.03 ± 0.099 | – | 6.21 ± 1.6 | 0.53 ± 0.084 | – | 1.16 ± 0.17 | 1.06 ± 0.27 | 0.983 ± 0.17 | 1.21 ± 0.081 | 1.04 ± 0.062 | 1.17 ± 0.28 | 0.434 ± 0.25 | 0.708 ± 0.12 |
| C[C@]12CC[C@@H]3c4ccc(OS(=O)(=O)O)cc4CC[C@H]3[C@@H]1CCC2=O [Estrone 3-sulfate sodium salt] | 1.02 ± 0.11 | 0.982 ± 0.1 | 0.744 ± 0.098 | 1.04 ± 0.3 | 1.21 ± 0.064 | 1.26 ± 0.094 | 0.714 ± 0.54 | – | 0.66 ± 0.11 | 0.203 ± 0.023 | 0.759 ± 0.1 | 1.22 ± 0.089 | 0.985 ± 0.36 | 1.35 ± 0.12 | 0.979 ± 0.1 | 1.07 ± 0.048 | – | 0.896 ± 0.19 |
| CCCC(=O)Nc1ccc(OCC(O)CNC(C)C)c(C(C)=O)c1 (stereo unspecified) [Acebutolol hydrochloride] | 1.16 ± 0.045 | 1.04 ± 0.012 | 1.11 ± 0.23 | 1.19 ± 0.079 | 1.04 ± 0.081 | 0.795 ± 0.14 | – | 0.878 ± 0.29 | 0.739 ± 0.18 | – | 0.813 ± 0.098 | 1.02 ± 0.21 | 0.921 ± 0.2 | 0.868 ± 0.18 | 1.23 ± 0.13 | 1.35 ± 0.18 | 0.792 ± 0.074 | 0.833 ± 0.22 |
| CC(=O)/N=c1/sc(S(N)(=O)=O)nn1C [Methazolamide] | 1.36 ± 0.21 | 0.942 ± 0.021 | 0.867 ± 0.054 | 0.921 ± 0.17 | 1.15 ± 0.046 | 1.42 ± 0.29 | 1.26 ± 0.93 | 0.87 ± 0.11 | 0.773 ± 0.028 | 0.548 ± 0.074 | 0.977 ± 0.082 | 1.48 ± 0.21 | 1.87 ± 0.17 | 0.935 ± 0.25 | 1.25 ± 0.072 | 1.13 ± 0.013 | – | – |
| Cc1c(O)c(=O)ccn1C [Deferiprone] | 1.34 ± 0.15 | 1.17 ± 0.022 | 0.999 ± 0.17 | 1.02 ± 0.71 | 0.928 ± 0.098 | 1.97 ± 0.2 | 1.42 ± 0.83 | – | 0.709 ± 0.028 | 0.0946 ± 0.065 | 0.53 ± 0.079 | 1.28 ± 0.4 | 0.896 ± 0.38 | 1.19 ± 0.11 | 0.8 ± 0.12 | 0.836 ± 0.094 | – | 0.71 ± 0.23 |

A different layout for part of the listing above.
SMILES	Hoechst total cell count ratio (hAMSC donor 1 [1]; [7])	Hoechst total cell count ratio (hAMSC donor 1 [1]; [8])	Hoechst total cell count ratio (hAMSC donor 1 [1]; [9])	Hoechst total cell count ratio (hAMSC donor 2 [2]; [7])	Hoechst total cell count ratio (hAMSC donor 2 [2]; [8])	Hoechst total cell count ratio (hAMSC donor 2 [2]; [9])	transgenic luciferase activity (hAMSC donor 1 [3]; [8])	transgenic luciferase activity (hAMSC donor 1 [3]; [9])	transgenic luciferase activity (hAMSC donor 2 [4]; [8])	transgenic luciferase activity (hAMSC donor 2 [4]; [9])	transfection efficiency (hAMSC donor 1 [5]; [7])	transfection efficiency (hAMSC donor 1 [5]; [8])	transfection efficiency (hAMSC donor 1 [5]; [9])	transfection efficiency (hAMSC donor 2 [6]; [7])	transfection efficiency (hAMSC donor 2 [6]; [8])	transfection efficiency (hAMSC donor 2 [6]; [9])	transgenic luciferase activity (hAMSC donor 1 [3]; [7])	transgenic luciferase activity (hAMSC donor 2 [4]; [7])
CNCC(O)c1ccc(O)c(O)c1 (stereo unspecified) [Racepinephrine]	1.3 ± 0.089	1.38 ± 0.3	1.5 ± 0.27	1.14 ± 0.051	0.809 ± 0.059	1.34 ± 0.16	–	0.616 ± 0.46	0.501 ± 0.062	–	1.06 ± 0.34	1.21 ± 0.19	0.98 ± 0.14	1.01 ± 0.045	1.1 ± 0.05	0.68 ± 0.23	1.2 ± 0.4	0.709 ± 0.076
CC(C)Cc1ccc(C(C)C(=O)O)cc1 (stereo unspecified) [Ibuprofen]	0.91 ± 0.09	0.988 ± 0.08	0.826 ± 0.09	1.18 ± 0.49	1.3 ± 0.21	1.19 ± 0.37	1.79 ± 1	–	2.72 ± 1.8	0.488 ± 0.28	0.926 ± 0.19	0.954 ± 0.14	0.895 ± 0.23	1.46 ± 0.31	0.938 ± 0.071	1.19 ± 0.24	–	0.714 ± 0.098
